{"source": "PubChem BioAssay AID1918955", "about": "(Molecular Pharmacology Branch, DTP, NCI, 2023)", "tested_on": "NCI/ADR-RES complex spheroid viability", "experiment": "Anticancer human tumor NCI/ADR-RES cell line growth inhibition;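 also: spheroids exposed to compounds for 7 days; 100% = DMSO vehicle treated spheroids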", "details": "active compounds read low", "text": "Multicellular complex tumor spheroid response to LSD1 Inhibitor Iadademstat in combination with a variety of drugs and investigational agents in selected tumor cell lines\nThe current study was undertaken to assess response to LSD1 inhibitors in combination with standard-of-care drugs and investigational agents in solid tumor complex spheroid models as well as in the K-562 leukemia. Complex spheroids include a stromal component modeled by human endothelial cells (HUVEC) and fibroblasts modeled by human mesenchymal stem cells (MSCs). The concentration ranges selected for each drug and investigational agent were based upon clinically achievable concentrations if the clinical Cmax of the agent was known.\nCompounds. The drugs and investigational agents used in this study are listed on Table 1. All of the agents used, including staurosporine (NSC755774) and gemcitabine (NSC613327), were obtained from the Developmental Therapeutics Program, NCI. FDA-approved anticancer drugs are available from the NCI at http://dtp.nci.nih.gov/branches/dscb/oncology_drugset_explanation.html. Drugs and investigational agents were >95% pure by proton nuclear magnetic resonance (NMR) and liquid chromatography/mass spectrometry (LC/MS). Stock solutions were prepared at 400x in DMSO, stored at -70 degrees C, and diluted in fresh medium prior to their use. The final concentration of DMSO in cell culture wells never exceeded 0.25% (v/v). The FDA-approved anticancer drug set is available from the Developmental Therapeutics Program at https://dtp.cancer.gov/organization/dscb/obtaining/available_plates.htm. All drugs and investigational agents were tested over a range starting from a high concentration at or near the clinical Cmax and decreasing in half-log increments. If the clinical Cmax for an agent had not been determined, the highest concentration tested was 10 microM.\nCell Lines. […]", "note": "“And” between values parts separate entries of the source, which are not always exact repeats. Equal values may be shown once. Further values from the same series stand in other lists."}
{"compound": "NC1CC1c1ccc(-c2cccc(O)c2)cc1", "note": "(stereo not drawn)", "values": [{"measurement": "viability, T/C", "setting": "compound 0.1 µM", "value": "102% [middle of 21 runs]"}]}
{"compound": "NC1CCC(NC2CC2c2ccccc2)CC1", "note": "(stereo not drawn)", "values": [{"measurement": "viability, T/C", "setting": "compound 0.316 µM", "value": "103% [middle of 22 runs]"}, {"measurement": "viability, T/C", "setting": "compound 10 µM", "value": "88.7% and 104%"}]}
